Data on one substance can be found in paper PMC8216288.

By UniProt entry, the sequences of proteins in these tests, tags left out. Where a name states a change or a piece, a line headed by the entry shows the natural chain unless it says otherwise.
UniProt O75385: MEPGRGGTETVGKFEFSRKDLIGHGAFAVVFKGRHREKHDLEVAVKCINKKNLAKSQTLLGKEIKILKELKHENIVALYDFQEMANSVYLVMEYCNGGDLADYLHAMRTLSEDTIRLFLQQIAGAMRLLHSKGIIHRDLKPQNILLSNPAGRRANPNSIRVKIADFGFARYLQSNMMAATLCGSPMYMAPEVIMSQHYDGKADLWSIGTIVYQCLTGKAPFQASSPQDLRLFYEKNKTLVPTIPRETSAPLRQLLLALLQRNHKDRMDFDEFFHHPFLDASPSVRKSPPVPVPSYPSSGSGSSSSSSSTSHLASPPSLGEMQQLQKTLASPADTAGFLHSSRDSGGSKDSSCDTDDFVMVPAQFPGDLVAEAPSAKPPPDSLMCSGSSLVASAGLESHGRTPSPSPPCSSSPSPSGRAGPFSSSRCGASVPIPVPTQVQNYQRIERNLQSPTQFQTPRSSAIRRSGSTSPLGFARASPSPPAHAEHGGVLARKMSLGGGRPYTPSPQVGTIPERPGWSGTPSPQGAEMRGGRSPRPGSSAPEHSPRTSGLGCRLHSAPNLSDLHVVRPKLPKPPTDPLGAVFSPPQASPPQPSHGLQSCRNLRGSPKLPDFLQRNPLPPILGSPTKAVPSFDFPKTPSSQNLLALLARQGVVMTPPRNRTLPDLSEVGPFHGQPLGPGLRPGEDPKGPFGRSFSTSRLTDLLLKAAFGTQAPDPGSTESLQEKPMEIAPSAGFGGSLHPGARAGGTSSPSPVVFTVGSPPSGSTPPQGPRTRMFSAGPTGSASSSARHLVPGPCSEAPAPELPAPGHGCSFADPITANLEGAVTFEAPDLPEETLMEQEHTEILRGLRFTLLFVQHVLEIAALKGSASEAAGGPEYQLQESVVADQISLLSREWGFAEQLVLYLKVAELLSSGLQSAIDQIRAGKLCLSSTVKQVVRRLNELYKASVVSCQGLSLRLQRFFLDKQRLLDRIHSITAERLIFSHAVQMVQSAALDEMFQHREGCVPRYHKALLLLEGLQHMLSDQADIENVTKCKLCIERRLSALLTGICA

Results are given in words; binding and its absence hold for the method and conditions named. Binding seen in cells or lysates may run through a third protein. A result given as binding can be weak or reduced; the word gives no strength.

For the assay, the target named is recombinant ULK1 (co-purified with pICln, SD Figure 1A) (human) (UniProt O75385). Description: pull-down; recombinant ULK1 and pICln co-purified (SD Figure 1A); for pulldown assays recombinant proteins were pre-incubated 1.5 h at 4°C, then sepharose for one hour; both purified.

Turning to “recombinant pICln (co-purified with ULK1, SD Figure 1A) (from UniProt P54105 1-237)”, the binding entry is recorded as “binds”.
